Laboratory results as given in patent US6962922B2, “Alkynylated quinazoline compounds” (Warner-Lambert Company LLC, priority 2001, dated 2005).
Some of these results come from one statement about several compounds together.

target: T1, catalytic domain of human MMP-13 (Homo sapiens, UniProt P45452); assay: Inhibition of proteolysis of a thioester peptide substrate by MMP-13; format: biochemical; details: substrate Ac-Pro-Leu-Gly-thioester-Leu-Leu-Gly-OEt 100 μM, pH 7.0, 2.5 nM enzyme, absorbence at 405 nm
T1 construct: 2.5 nM of the catalytic domain of human MMP-13

SMILES	IC50
COc1ccc(CC#Cc2ccc3c(c2)c(=O)n(Cc2ccc(C(=O)O)cc2)c(=O)n3C)cc1 [Example 3, 4-{6-[3-(4-Methoxy-phenyl)-prop-1-ynyl]-1-methyl-2,4-dioxo-1,4-dihydro-2H-quinazolin-3-ylmethyl}-benzoic acid]	< 10 µM
Cn1c(=O)n(Cc2ccc(C(=O)O)cc2)c(=O)c2cc(C#CCc3ccccc3)ncc21 [Example 4, 4-[1-Methyl-2,4-dioxo-6-(3-phenyl-prop-1-ynyl)-1,4-dihydro-2H-pyrido[3,4-d]pyrimidin-3-ylmethyl]-benzoic acid]	< 10 µM
COc1ccc(CC#Cc2cc3c(=O)n(Cc4ccc(C(=O)O)cc4)c(=O)n(C)c3cn2)cc1 [Example 5, 4-{6-[3-(4-Methoxy-phenyl)-prop-1-ynyl]-1-methyl-2,4-dioxo-1,4-dihydro-2H-pyrido[3,4-d]pyrimidin-3-ylmethyl}-benzoic acid]	< 10 µM
O=C(O)c1ccc(Cn2c(=O)c3cc(C#CCc4ccccc4)ccc3n3cnnc23)cc1 [Example 9, 4-[5-Oxo-7-(3-phenyl-prop-1-ynyl)-5H-[1,2,4]triazolo[4,3-a]quinazolin-4-ylmethyl]-benzoic acid]	< 10 µM
Cn1c(=O)n(Cc2ccc(C(=O)O)cc2)c(=O)c2cc(C#Cc3ccccc3)ccc21 [Example 10, 4-(1-Methyl-2,4-dioxo-6-(2-phenylethynyl)-1,4-dihydro-2H-quinazolin-3-ylmethyl)-benzoic acid]	< 10 µM
Cn1c(=O)n(Cc2ccc(F)c(F)c2)c(=O)c2cc(C#CCc3ccccc3)ccc21 [Example 11, 3-(3,4-Difluoro-benzyl)-1-methyl-6-(3-phenyl-prop-1-ynyl)-1H-quinazoline-2,4-dione]	< 10 µM
Cn1c(=O)n(Cc2ccc(F)c(F)c2)c(=O)c2cc(C#CCc3ccc(F)cc3)ccc21 [Example 12, 3-(3,4-Difluoro-benzyl)-6-[3-(4-fluoro-phenyl)-prop-1-ynyl]-1-methyl-1H-quinazoline-2,4-dione]	< 10 µM
Cn1c(=O)n(Cc2ccc(Br)cc2)c(=O)c2cc(C#CCc3ccccc3)ccc21 [Example 13, 3-(4-Bromo-benzyl)-1-methyl-6-(3-phenyl-prop-1-ynyl)-1H-quinazoline-2,4-dione]	< 10 µM
Cn1c(=O)n(Cc2ccc(C(=O)OC(C)(C)C)cc2)c(=O)c2cc(C#CCc3ccc(-c4ccccc4)cc3)ccc21 [Example 14, tert-Butyl 4-[6-(3-biphenyl-4-yl-prop-1-ynyl)-1-methyl-2,4-dioxo-1,4-dihydro-2H-quinazolin-3-ylmethyl]-benzoate]	< 10 µM
Cn1c(=O)n(Cc2ccc(C(=O)OC(C)(C)C)cc2)c(=O)c2cc(C#CCc3ccc(F)cc3)ccc21 [Example 15, tert-Butyl 4-{6-[3-(4-fluoro-phenyl)-prop-1-ynyl]-1-methyl-2,4-dioxo-1,4-dihydro-2H-quinazolin-3-ylmethyl}-benzoate]	< 10 µM
Cn1c(=O)n(Cc2ccc(C(=O)O)cc2)c(=O)c2cc(C#CCc3ccc(O[Si](C)(C)C(C)(C)C)cc3)ccc21 [Example 16, 4-(6-{3-[4-(tert-Butyl-dimethyl-silanyloxy)-phenyl]-prop-1-ynyl}-1-methyl-2,4-dioxo-1,4-dihydro-2H-quinazolin-3-ylmethyl)-benzoic acid]	< 10 µM
COC(=O)c1ccc(Cn2c(=O)c3cc(C#CCc4ccccc4)ccc3n(C)c2=O)cc1 [Example 17, Methyl 4-[1-methyl-2,4-dioxo-6-(3-phenyl-prop-1-ynyl)-1,4-dihydro-2H-quinazolin-3-ylmethyl]-benzoate]	< 10 µM
CN(C)CCOC(=O)c1ccc(Cn2c(=O)c3cc(C#CCc4ccccc4)ccc3n(C)c2=O)cc1 [Example 18, 2-Dimethylamino-ethyl 4-[1-methyl-2,4-dioxo-6-(3-phenyl-prop-1-ynyl)-1,4-dihydro-2H-quinazolin-3-ylmethyl]-benzoate]	< 10 µM
CN(C)C(=O)c1ccc(Cn2c(=O)c3cc(C#CCc4ccccc4)ccc3n(C)c2=O)cc1 [Example 19, N,N-Dimethyl-4-[1-methyl-2,4-dioxo-6-(3-phenyl-prop-1-ynyl)-1,4-dihydro-2H-quinazolin-3-ylmethyl]-benzamide]	< 10 µM
Cn1c(=O)n(Cc2ccc(C(=O)N3CCCCC3)cc2)c(=O)c2cc(C#CCc3ccccc3)ccc21 [Example 20, 1-Methyl-6-(3-phenyl-prop-1-ynyl)-3-[4-(piperidine-1-carbonyl)-benzyl]-1H-quinazoline-2,4-dione]	< 10 µM
CCNC(=O)c1ccc(Cn2c(=O)c3cc(C#CCc4ccccc4)ccc3n(C)c2=O)cc1 [Example 21, N-Ethyl-4-[1-methyl-2,4-dioxo-6-(3-phenyl-prop-1-ynyl)-1,4-dihydro-2H-quinazolin-3-ylmethyl]-benzamide]	< 10 µM
CN1CCN(C(=O)c2ccc(Cn3c(=O)c4cc(C#CCc5ccccc5)ccc4n(C)c3=O)cc2)CC1 [Example 22, 1-Methyl-3-[4-(4-methyl-piperazine-1-carbonyl)-benzyl]-6-(3-phenyl-prop-1-ynyl)-1H-quinazoline-2,4-dione]	< 10 µM

SMILES	IC50
Cn1c(=O)n(Cc2ccc(C(=O)N(CCO)CCO)cc2)c(=O)c2cc(C#CCc3ccccc3)ccc21 [Example 23, N,N-Bis-(2-hydroxy-ethyl)-4-[1-methyl-2,4-dioxo-6-(3-phenyl-prop-1-ynyl)-1,4-dihydro-2H-quinazolin-3-ylmethyl]-benzamide]	< 10 µM
Cn1c(=O)n(Cc2ccc(CO)cc2)c(=O)c2cc(C#CCc3ccccc3)ccc21 [Example 24, 3-(4-Hydroxymethyl-benzyl)-1-methyl-6-(3-phenyl-prop-1-ynyl)-1H-quinazoline-2,4-dione]	< 10 µM
Cn1c(=O)n(Cc2cccc(Cl)c2)c(=O)c2cc(C#CCc3ccccc3)ccc21 [Example 25, 3-(3-Chloro-benzyl)-1-methyl-6-(3-phenyl-prop-ynyl)-1H-quinazoline-2,4-dione]	< 10 µM
Cn1c(=O)n(Cc2cccc(F)c2)c(=O)c2cc(C#CCc3ccccc3)ccc21 [Example 26, 3-(3-Fluoro-benzyl)-1-methyl-6-(3-phenyl-prop-1-ynyl)-1H-quinazoline-2,4-dione]	< 10 µM
Cn1c(=O)n(Cc2ccc(Cl)cc2)c(=O)c2cc(C#CCc3ccccc3)ccc21 [Example 27, 3-(4-Chloro-benzyl)-1-methyl-6-(3-phenyl-prop-1-ynyl)-1H-quinazoline-2,4-dione]	< 10 µM
Cn1c(=O)n(Cc2ccc(C(=O)O)cc2)c(=O)c2cc(C#CCn3ccnc3)ccc21 [Example 28, 4-[6-(3-Imidazol-1-yl-prop-1-ynyl)-1-methyl-2,4-dioxo-1,4-dihydro-2H-quinazolin-3-ylmethyl]-benzoic acid; compound with trifluoro-acetic acid]	< 10 µM
Cn1c(=O)n(Cc2ccc(F)c(F)c2)c(=O)c2cc(C#CCn3ccnc3)ccc21 [Example 29, 3-(3,4-Difluoro-benzyl)-6-(3-imidazol-1-yl-prop-1-ynyl)-1-methyl-1H-quinazoline-2,4-dione]	< 10 µM
Cn1c(=O)n(Cc2ccc(F)c(F)c2)c(=O)c2cc(C#CCc3ccc(Cl)cc3)ccc21 [Example 30, 6-[3-(4-Chloro-phenyl)-prop-1-ynyl]-3-(3,4-difluoro-benzyl)-1-methyl-1H-quinazoline-2,4-dione]	< 10 µM
Cn1c(=O)n(Cc2cccc(Cl)c2)c(=O)c2cc(C#CCc3ccc(Cl)cc3)ccc21 [Example 31, 3-(3-Chloro-benzyl)-6-[3-(4-chloro-phenyl)-prop-1-ynyl]-1-methyl-1H-quinazoline-2,4-dione]	< 10 µM
Cn1c(=O)n(Cc2ccc(F)c(F)c2)c(=O)c2cc(C#CCn3ccnn3)ccc21 [Example 32, 3-(3,4-Difluoro-benzyl)-1-methyl-6-(3-[1,2,3]triazol-1-yl-prop-1-ynyl)-1H-quinazoline-2,4-dione]	< 10 µM
Cn1c(=O)n(Cc2ccc(F)c(F)c2)c(=O)c2cc(C#CCn3cncn3)ccc21 [Example 33, 3-(3,4-Difluoro-benzyl)-1-methyl-6-(3-[1,2,4]triazol-1-yl-prop-1-ynyl)-1H-quinazoline-2,4-dione]	< 10 µM
Cn1c(=O)n(Cc2ccc(Cl)c(Cl)c2)c(=O)c2cc(C#CCn3cncn3)ccc21 [Example 34, 3-(3,4-Dichloro-benzyl)-1-methyl-6-(3-[1,2,4]triazol-1-yl-prop-1-ynyl)-1H-quinazoline-2,4-dione]	< 10 µM
Cn1c(=O)n(Cc2ccc(Cl)c(Cl)c2)c(=O)c2cc(C#CCc3ccccc3)ccc21 [Example 35, 3-(3,4-Dichloro-benzyl)-1-methyl-6-(3-phenyl-prop-1-ynyl)-1H-quinazoline-2,4-dione]	< 10 µM
Cn1c(=O)n(Cc2ccc(F)cc2)c(=O)c2cc(C#CCc3ccccc3)ccc21 [Example 36, 3-(4-Fluorobenzyl)-6-(3-phenyl-prop-1-ynyl)-1-methyl-1H-quinazolin-2,4-dione]	< 10 µM
COc1ccc(CC#Cc2ccc3c(c2)c(=O)n(Cc2ccc(F)cc2)c(=O)n3C)cc1 [Example 37, 3-(4-Fluorobenzyl)-6-[3-(4-methoxyphenyl)-prop-1-ynyl]-1-methyl-1H-quinazolin-2,4-dione]	< 10 µM
COc1ccc(C(=O)C#Cc2ccc3c(c2)c(=O)n(Cc2ccc(F)cc2)c(=O)n3C)cc1 [Example 38, 3-(4-Fluorobenzyl)-6-[3-(4-methoxyphenyl)-3-oxo-prop-1-ynyl)-1-methyl-1H-quinazolin-2,4-dione]	< 10 µM
